According to PMC7891750:
Results are given in words; binding and its absence hold for the method and conditions named. In cells and extracts the contact can be indirect. For some of these results: Binding can be weak; no strength is given. For some of these results: Sequences can lack the tags named with a protein. Values belong to the binder of their own block, whether it stands above or below them.

What was measured:
[1] = molecular target: zebrafish mitochondrial antiviral signaling protein (MAVS), Flag-tagged (zebrafish); assay: co-IP; EPC cells co-transfected; lysates immunoprecipitated with anti-Flag affinity gel, immunoblot of the tagged partner
[2] = molecular target: zebrafish IFN regulatory factor 3 (IRF3), Flag-tagged (zebrafish); assay: as above
TBK1-ΔC (zebrafish) = assay: co-IP; HEK 293T cells co-transfected (5 μg each plasmid), 24 h; RIPA lysis buffer; anti-Flag or anti-Myc affinity gel overnight at 4°C; immunoblot
TBK1-ΔN (zebrafish) = assay: as above

binding [1]: binds
binding [2]: binds
B1: zebrafish transmembrane protein 33 (TMEM33), Myc-tagged (protein, UniProt A0A8M1PJV5 1-252)
chain: MADTEQRSPPPPPPPQAGAAQFLLSNKLETAMWLSRLFTVYCSIMFILPLLGPQAAANFYQRALLANALTSALRLHQRLPHFQLSRAFLAQALQEDSCHYLLYSLILVNSYPITMSIFPVFLFSLLHATTYTKKVLDTMGPNSLMFVRNFLNKLTSNQQNILKFIACNEIFLMPATVFMLFSGQGSLLQPFIYYRFLTLRYSSRRNPYCRTLFTELRILLEHFVMKPSCPVFFRRMCLNSIAFVSRLAPTGV

binding (TBK1-ΔC (zebrafish)): binds
binding (TBK1-ΔN (zebrafish)): no binding
B2: zebrafish transmembrane protein 33 (TMEM33), full-length, in HEK 293T cells (protein, UniProt A0A8M1PJV5 1-252)
chain: B1 chain
